Test results: patent US20060094672A1 (University of Texas, published 2006)

Target: T1, prohibitin (B cell receptor associated protein; prohibitin receptor protein complex) (mouse)
T1 sequence (P67778 2-272, looked up): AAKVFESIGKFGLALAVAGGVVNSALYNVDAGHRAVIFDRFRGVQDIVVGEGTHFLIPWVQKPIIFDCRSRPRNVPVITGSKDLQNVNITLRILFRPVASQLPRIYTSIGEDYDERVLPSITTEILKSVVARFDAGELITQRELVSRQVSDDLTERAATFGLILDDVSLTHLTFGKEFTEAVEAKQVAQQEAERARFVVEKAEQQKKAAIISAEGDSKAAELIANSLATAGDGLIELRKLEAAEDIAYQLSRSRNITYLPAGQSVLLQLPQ
Assay: immunoprecipitation from mouse adipose tissue extract, SDS-PAGE

CARACKLAKLAKKLAKLAK (cyclized using the terminal cysteines) [CARAC (SEQ ID NO:12) conjugated to (KLAKLAK)2 (SEQ ID NO:1)] was tested, and the binding was “binds”.

These are yes or no findings as the source states them, for the method shown. A result given as binding can be weak or reduced; the word gives no strength.
